Assay: Sensory test of perfume raw materials in self-tanning cosmetic containing dimethylpyrazine
Details: score 1 to 5 in units of 0.5, four specialized panelists; perfume 0.1 mass % in Table 4 cosmetic with 1 mass % dimethylpyrazine

| Compound | Evaluation result |
| --- | --- |
| CCCCCC1CCC(=O)O1 (stereo not shown) [Aldehyde C-18, gamma-nonalactone] | 4.5 |
| C=CC(C)(O)CCC=C(C)CC (stereo not shown) [Ethyl linalool, 3,7-dimethyl-1,6-nonadien-3-ol] | 4.0 |
| CCCCCC1C(=O)CCC1CC(=O)OC (stereo not shown) [Methyl dihydrojasmonate, methyl dihydrojasmonate] | 2.0 |
| CC=CC(=O)C1C(C)=CCCC1(C)C (stereo not drawn) [α-Damascone, 1-(2,2,6-trimethyl-2-cyclohexenyl)-2-buten-1-one] | 4.0 |

Reference: patent US20130280188A1, “SELF-TANNING COSMETIC” (KAO CORPORATION, priority 2012, published 2013)
